Results published in PubChem BioAssay AID743238 (Broad Institute, 2013).
Hit rate of the full screen: of about 360,000 compounds, about 200 (0.056%) were called active. The shares of active, inactive and inconclusive entries below differ from those in the screen.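 The calls were made as follows: active = mean normalized replicate activation at least 10% and every replicate at or above 10%; inconclusive = only one of the two criteria met; inactive = mean below 10% and not all replicates reach 10%.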

Assay: activators of inactive X chromosome reactivation, primary screen, imaging, XiGFP fibroblasts, GFP high-content imaging, set 2 (AID 743238);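 also: 0% = median of on-plate neutral control wells and 100% = ellipticine 6 µM median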
Settings: XiGFP mouse fibroblasts, % GFP-positive cells imaging, 3 d; at 7.58 µM; hits give high values; cells co-treated with 5-aza-dC sensitizer; scaled so ellipticine positive control = 100%
Procedure, shortened: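 System: SV40-immortalized XiGFP fibroblast cells, line 68-5-11 / Incubation: 3-day compound exposure, then 15 min fixation at room temperature / Compound: single concentration per compound, delivered by pin transfer / Buffer or medium: DMEM plus 5-aza-dC sensitizer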
With CCCCCC[n+]1ccccc1/C=C/c1ccc(N(C)C)cc1 the activation was active: 16.3%.
In the case of CC(=O)Oc1cccc(N2C(=O)c3cccc4c([N+](=O)[O-])ccc(c34)C2=O)c1, the activation is reported as active: 12.5%.
With Cc1ccc2c(c1)c(/C=C/c1cc[n+](C)cc1)c(C)n2C the activation was active: 106%.
With Cc1n[nH]c(=S)n1/N=C/c1ccc(-c2ccc(Cl)cc2)o1 the activation was inconclusive: 16.1%.
In the case of C[C@H](CO)N1C[C@H](C)[C@H](CN(C)Cc2ccc(-c3ccccc3)cc2)Oc2ccc(NS(=O)(=O)c3ccc(Cl)cc3)cc2C1=O, the activation is reported as inactive: 0.07%.
With CCOC(=O)Cc1csc(SCC(=O)Nc2cc(C)ccc2OC)n1 the activation was inactive: -0.012%.
With CCCCNc1ccc2c3c(cccc13)C(=O)N(CCCC)C2=O the activation was active: 123%.
In the case of CCCn1c(SCC(=O)NCc2ccc(C)cc2)n[nH]c1=O, the activation is reported as inconclusive: 29.4%.
With NNC(=O)c1sc(-c2ccc(Cl)cc2)cc1N the activation was active: 19.1%.
With Cc1cc(=O)[nH]c(N/N=C/c2cc(C)n(-c3ccccc3)c2C)n1 the activation was inconclusive: 16.7%.
For CC(=O)N[C@@H](CC(=O)O)C(=O)O, the activation was inconclusive: 23.1%.
In the case of COc1ccc2c3c([nH]c2c1)[C@@H](CO)N(Cc1cc(F)ccc1F)CC31CCN(C(C)=O)CC1, the activation is reported as inconclusive: 30.8%.
In the case of Cc1cc(/C=C2\Sc3ccccc3N2C)cc(C)[n+]1CC1CCCO1 (stereo unspecified), the activation is reported as inconclusive: 13%.
With Cc1ccc(C)c(CSC2=NN3CCCC(=O)N=C3S2)c1 the activation was active: 18.8%.
With N#Cc1c(-c2ccco2)ccn(Cc2cccc(F)c2)c1=O the activation was inactive: -0.0265%.
For O=C(NCCO)/C(=C/c1ccco1)NC(=O)c1ccco1, the activation was inconclusive: 21.3%.
In the case of CC(C)(C)[S@@](=O)N1Cc2cc(C(=O)NCc3ccccc3F)nc(-c3cccc(-c4cncnc4)c3)c2[C@H]1CCO, the activation is reported as inactive: 0.0395%.
In the case of COc1ccc2c3c([nH]c2c1)[C@@H](CO)N(C(=O)NC(C)C)CC31CN(Cc2ccccc2)C1, the activation is reported as inactive: 0.846%.
In the case of CNC[C@@H](CC1CCCCC1)NC[C@H](CC(C)C)NCCc1cccc(C(F)(F)F)c1, the activation is reported as inconclusive: 10.8%.
With Cc1ccc(C)c(N2CCN(CC3CCCCC3)CC2)c1 the activation was inactive: 0.013%.
With N#C/C(=C(/O)COC(=O)c1ccc(Cl)c(S(=O)(=O)N2CCOCC2)c1)c1nc2ccccc2[nH]1 the activation was inactive: -0.176%.
In the case of CCCCCCCCCCCCCCCC[n+]1ccc(/C=N/O)cc1, the activation is reported as inconclusive: 17.9%.
In the case of COc1ccc(S(=O)(=O)N(C)C[C@H]2Oc3ccc(NS(=O)(=O)c4ccc(F)cc4)cc3CC(=O)N([C@@H](C)CO)C[C@@H]2C)cc1, the activation is reported as inconclusive: 21.5%.
For C[C@@H]1CN([C@@H](C)CO)C(=O)c2cc(NS(=O)(=O)c3cn(C)cn3)ccc2O[C@@H](C)CCCCO[C@H]1CN(C)C(=O)c1ccccc1, the activation was inconclusive: 27.7%.
For CC(=O)Oc1cccc(C2=CC(=O)CC(C)(C)C2=O)c1, the activation was inactive: 0.745%.
For O=C1C(Cl)=C(N2CCN(c3ccccc3[N+](=O)[O-])CC2)C(=O)c2ccccc21, the activation was active: 35.5%.
With N#C/C(=C\Nc1ccc2cn[nH]c2c1)c1nc(-c2ccccc2)cs1 the activation was inactive: -0.045%.
In the case of C[C@@H]1CN([C@H](C)CO)C(=O)c2cccc(NS(=O)(=O)c3cn(C)cn3)c2O[C@@H]1CN(C)C(=O)NC1CCCCC1, the activation is reported as inactive: -0.612%.
In the case of O=S(=O)(Nc1cc(Sc2cccc3cccnc23)c(O)c2ccccc12)c1ccccc1, the activation is reported as active: 52.8%.
With CC(=O)c1c(COC(=O)c2ccccc2Cl)nc2ccccc2[n+]1[O-] the activation was inconclusive: 51.3%.
With Cc1ccc(S(=O)(=O)N(C)C[C@H]2OCCCC[C@@H](C)Oc3ccc(NC(=O)Nc4c(C)noc4C)cc3C(=O)N([C@H](C)CO)C[C@@H]2C)cc1 the activation was inconclusive: 19.1%.
With O=C(Nc1nc2ccccc2[nH]1)c1cc(F)cc(F)c1 the activation was inactive: -0.013%.
With COC(C(=O)NCc1ccc(C)cc1)c1ccccc1 (stereo unspecified) the activation was inconclusive: 37.1%.
For CCOC(=O)Cc1c(C)[nH]n(-c2ccccc2)c1=O, the activation was inconclusive: 12.1%.
For Clc1cccc(Cc2c(-c3cccc(Cl)c3)nc3c4ccccc4ccn23)c1, the activation was inactive: 0.017%.
With CN=c1scc(-c2ccco2)n1/N=C/c1ccc(O)c(O)c1 the activation was inactive: -0.015%.
In the case of C#CCN1C(=O)S/C(=C/C=C/c2ccc(N(C)C)cc2)C1=O, the activation is reported as inactive: -0.0735%.
With CCCN(C)C[C@@H]1OCc2cnnn2CCCC(=O)N([C@H](C)CO)C[C@H]1C the activation was inconclusive: 11%.
With COc1ccc(-c2ccc(C3[C@@H]4CN(S(=O)(=O)c5ccccc5C)C[C@H]3N4)cc2)cc1 (stereo partly specified) the activation was inconclusive: 16.6%.
For CNc1ccc([N+](=O)[O-])cc1C(=O)O, the activation was active: 34.2%.
With COc1ccc(Cc2c(O)nc(SCC(=O)NC34CC5CC(CC(C5)C3)C4)[nH]c2=O)cc1 the activation was inconclusive: 20.2%.
With C[C@H]1CCCCO[C@H](CN(C)S(=O)(=O)c2ccc(Cl)cc2)[C@@H](C)CN([C@@H](C)CO)C(=O)c2cc(NC(=O)Nc3ccccc3)ccc2O1 the activation was inconclusive: 11.3%.
In the case of C[C@@H]1CN([C@@H](C)CO)C(=O)Cc2cc(NC(=O)C3CCCCC3)ccc2O[C@H]1CN(C)CC1CC1, the activation is reported as inactive: 0.102%.
With COc1ccc(C(=O)Nc2ccc3oc(-c4cccc(F)c4)nc3c2)cc1OC the activation was inconclusive: 23.7%.
With CCN(CC)C1=CC2=CC(=C(C#N)C#N)CCC2CC1 (stereo unspecified) the activation was active: 81.6%.
With CCOC(=O)C1CCN(C(=O)c2ccc(NS(=O)(=O)c3ccc(F)cc3C)cc2)CC1 the activation was active: 25.5%.
In the case of C[C@@H]1CN(C)C(=O)Cc2ccccc2O[C@H]1CN(C)C, the activation is reported as inactive: 0.298%.
In the case of CN1/C(=C/C=C(C#N)C#N)C(C)(C)c2ccccc21, the activation is reported as active: 25.4%.
For Cc1noc(C)c1S(=O)(=O)Nc1ccc2c(c1)C(=O)N([C@H](C)CO)C[C@H](C)[C@H](CN(C)C(=O)Nc1ccc(F)cc1)OCCCC[C@H](C)O2, the activation was inconclusive: 53.7%.
With CCCCNc1nc(NCc2ccccc2)nc2ccccc12 the activation was inactive: 0.0755%.
With NS(=O)(=O)c1cccc(-n2cnnn2)c1 the activation was active: 39.8%.
